B1: NW peptide with leucine (L) at position 7 replaced by alanine (peptide)
peptide: NWYLPWAGTNDW
B2: NW peptide with leucine (L) at position 4 replaced by alanine (peptide)
peptide: NWYAPWLGTNDW
B3: NW peptide with tryptophan (W) at position 12 replaced by alanine (peptide)
peptide: NWYLPWLGTNDA
B4: NW peptide with tryptophan (W) at position 2 replaced by alanine (peptide)
peptide: NAYLPWLGTNDW
B5: NW peptide with tryptophan (W) at position 6 replaced by alanine (peptide)
peptide: NWYLPALGTNDW

Results are given in words; binding and its absence hold for the method and conditions named.

This assay has as its target T1, prohibitin 1 (PHB1), endogenous in human blood monocytes (human (endogenous in blood monocytes)) (UniProt P35232).
T1 sequence: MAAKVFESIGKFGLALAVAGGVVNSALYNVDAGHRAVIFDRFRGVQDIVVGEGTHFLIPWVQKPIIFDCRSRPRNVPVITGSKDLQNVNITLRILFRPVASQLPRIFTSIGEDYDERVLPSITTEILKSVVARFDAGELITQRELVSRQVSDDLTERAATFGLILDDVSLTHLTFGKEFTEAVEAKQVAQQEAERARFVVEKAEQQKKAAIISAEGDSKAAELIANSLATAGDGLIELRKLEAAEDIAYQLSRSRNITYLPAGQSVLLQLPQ
Put plainly: flow cytometry on cells; competition: unlabelled peptides (2.5–20 μg/mL, four concentrations) against biotinylated wild-type NW peptide (0.05 μg/mL) on live blood monocytes; percent inhibition from geometric mean fluorescence intensity; only the binder purified.
Regarding B1, the binding result is given as “no binding”.
For the molecule B2, the binding entry is reported as “no binding”.
The same measure for B3: “no binding (tested: 20 μg/mL)”; for B4: “no binding (tested: 20 μg/mL)”.
Next, B5: “no binding (tested: 20 μg/mL)”.

The values above are taken from PMC9029656.
